Reference: PubChem BioAssay AID652259 (Drosophila RNAi Screening Center, 2013)
The screen tested about 22,000 reagents; shown is a random part of those that have a named target and a result. In the full data, 233 (1.1%) got an active call. 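Light values are raw, unnormalised plate reads; the ratio scores behind the reporter calls were not deposited.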 Unmarked entries are inactive. A plus sign joins genes that one reagent is predicted to hit. Not stated in the record: the amount of reagent, the time to read-out, the dose of the treatment.

Purpose: 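Identify new Wingless signalling regulators in fly cells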 (primary screen)
System: Drosophila clone 8 imaginal disc epithelial cells
Knock-down reagent: long dsRNA against Drosophila genes
Treatment: pathway stimulated by co-transfected Wingless expression plasmid
Read-out: 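Firefly luciferase from a tcf-site Wingless reporter, measured alongside co-transfected Renilla luciferase that tracks transfection; pathway stimulated by a Wingless plasmid; the firefly-to-Renilla ratio is not deposited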
Reading the numbers: firefly reporter light: higher = more Wg reporter light, before normalisation; Renilla control light: higher = more transfected or surviving cells
Hit rule: 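Strong candidates differ from their plate mean by at least two out of four per-plate statistical tests; weak candidates meet just one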
Calls: active = candidate regulator (raises or lowers reporter); inactive = not a candidate

| Gene | amplicon | reporter change call, replicate 1 | firefly reporter light, replicate 1 | firefly reporter light, replicate 2 | Renilla control light, replicate 1 | Renilla control light, replicate 2 |
| --- | --- | --- | --- | --- | --- | --- |
| Mp | DRSC10193 | – | 8216 | 7.77e5 | 4054 | 3.90e5 |
| Mp | DRSC11029 | – | 2466 | 7569 | 2058 | 2653 |
| Mp | DRSC11030 | – | 2561 | 5013 | 1424 | 1824 |
| yip3 | DRSC04724 | – | 1837 | 5797 | 336 | 2183 |
| CG9917 | DRSC20218 | – | 3360 | 9171 | 1053 | 2473 |
| CG6712 | DRSC02981 | – | 25361 | 7.03e5 | 9092 | 3.52e5 |
| CG6712 | DRSC21690 | – | 4.86e5 | 4.83e5 | 2.70e5 | 2.37e5 |
| CG8677 | DRSC03107 | – | 11900 | – | 2426 | – |
| CG8508 | DRSC16436 | – | 9082 | – | 3513 | – |
| CG4830 | DRSC15657 | – | 14151 | – | 4836 | – |
| Fmo-1 | DRSC04328 | – | 12448 | – | 3975 | – |
| ATPsyndelta | DRSC18248 | – | 13488 | – | 4208 | – |
| CG8191 | DRSC20091 | – | 22138 | – | 10411 | – |
| CG4766 | DRSC17736 | – | 28680 | – | 13048 | – |
| Rbpn-5 | DRSC04440 | – | 10635 | – | 3141 | – |
| Cdk4 | DRSC07358 | – | 9066 | – | 3504 | – |
| Acf | DRSC14101 | – | 1255 | 2656 | 567 | 997 |
| Rhp | DRSC20279 | – | 17472 | – | 7265 | – |
| Gr58a | DRSC03910 | – | 15845 | – | 7433 | – |
| CG34316 + asRNA:CR43471 | DRSC13080 | – | 3736 | – | 1650 | – |
| CtsL3 | DRSC12171 | – | 10272 | – | 3185 | – |
| CG42566 | DRSC03949 | – | 17962 | – | 9917 | – |
| osi | DRSC02931 | – | 1808 | 9569 | 1168 | 4843 |
| Kots | DRSC16581 | – | 7697 | – | 2096 | – |
| drn + CG43675 | DRSC15147 | – | 8344 | – | 3024 | – |
| BicC | DRSC02005 | – | 2233 | 5818 | 747 | 3008 |
| CG11368 | DRSC17778 | – | 16277 | – | 8328 | – |
| Irk3 | DRSC02047 | – | 1972 | 6256 | 544 | 3225 |
| Rm62 | DRSC12365 | Wg reporter activity raised (active) | 11744 | – | 1408 | – |
| Grl62a | DRSC07963 | – | 3216 | – | 1600 | – |
| CG32204 | DRSC09574 | – | 2112 | – | 599 | – |
| CG6833 | DRSC10721 | – | 6091 | – | 1562 | – |
| CG34425 | DRSC12210 | – | 18450 | – | 5876 | – |
| CG34425 | DRSC22315 | – | 6.68e5 | 5.95e5 | 2.72e5 | 2.56e5 |
| Stt3B | DRSC16781 | – | 23617 | – | 14501 | – |
| Sec3 | DRSC10384 | – | 2529 | – | 1200 | – |
| CG14270 | DRSC17913 | – | 19184 | – | 11440 | – |
| D19B | DRSC11134 | – | 2445 | 8423 | 980 | 2452 |
| att-ORFB + DPCoAC | DRSC15556 | – | 19968 | – | 3499 | – |
| Gr59f | DRSC04499 | – | 1972 | 6393 | 648 | 2148 |
| ng2 | DRSC18803 | – | 16452 | – | 14498 | – |
| Rad1 + Sws1 | DRSC00778 | – | 3152 | 8080 | 1248 | 2913 |
| spz5 | DRSC08645 | – | 13425 | – | 5367 | – |
| HDAC11 | DRSC14280 | – | 10346 | – | 10801 | – |
| SmydA-8 | DRSC18797 | – | 31875 | – | 18576 | – |
| SmydA-8 | DRSC22064 | – | 4.71e5 | 4.69e5 | 2.00e5 | 2.41e5 |
| SmydA-8 | DRSC22263 | – | 2.81e5 | 3.60e5 | 1.31e5 | 1.63e5 |
| Tdrd3 | DRSC10016 | – | 5642 | – | 2745 | – |
| Dpck | DRSC12575 | – | 13552 | – | 3016 | – |
| Fkbp12 | DRSC07425 | – | 7036 | – | 2161 | – |
| Rbf | DRSC18704 | – | 2640 | 5878 | 1205 | 2208 |
| Unc50 | DRSC16561 | – | 21328 | – | 4576 | – |
| CG5665 | DRSC11783 | – | 20672 | – | 6176 | – |
| Tpr2 | DRSC03461 | – | 13764 | – | 2682 | – |
| MED15 | DRSC00267 | – | 7179 | – | 2501 | – |
| Coq5 | DRSC19849 | – | 26277 | – | 12523 | – |
| Coq5 | DRSC21371 | – | 3.85e5 | 3.90e5 | 1.59e5 | 1.31e5 |
| CG3280 (retired record) | DRSC10356 | – | 6980 | – | 3078 | – |
| CG6695 | DRSC16098 | – | 1684 | 4792 | 1338 | 1847 |
| CG6709 + Hez | DRSC10165 | – | 7169 | – | 4784 | – |
| CG6709 + Hez | DRSC10698 | – | 8884 | – | 5126 | – |
| Mdr50 | DRSC07467 | – | 9061 | – | 3882 | – |
| CG43090 | DRSC17439 | – | 2843 | – | 1017 | – |
| mspo | DRSC07652 | – | 7314 | – | 2491 | – |
| CG15578 | DRSC18066 | – | 19843 | – | 9520 | – |
| sbm | DRSC20185 | – | 17704 | – | 8982 | – |
| cv-c | DRSC14969 | – | 10480 | – | 3232 | – |
| cv-c | DRSC14970 | – | 19877 | – | 6464 | – |
| cv-c | DRSC14971 | – | 13041 | – | 2715 | – |
| cv-c | DRSC14972 | – | 12912 | – | 2256 | – |
| cv-c | DRSC14973 | – | 19754 | – | 2962 | – |
| cv-c | DRSC16428 | – | 9864 | – | 3462 | – |
| Nepl5 | DRSC03241 | – | 7307 | – | 4746 | – |
